Data from PubChem BioAssay AID743266 (National Center for Advancing Translational Sciences (NCATS), 2014).
Hit rate of the full screen: of about 410,000 compounds, about 310 (0.076%) were called active. The shares of active, inactive and inconclusive entries below differ from those in the screen. The call rests on the fitted dose curve; in most records, active means well fitted activation curve with a large enough effect; inconclusive means small, poorly fitted or top-dose-only effect, or another doubt; inactive means no such curve, though single readings can be large or run the other way. A potency beside an inconclusive call is a rough fit, not a confirmed value.

Protein sequences, listed by entry. Tags and fused reporters are not part of them. Lines headed by an entry give the natural chain unless they say otherwise; changes in a name come on top.
UniProt Q03431: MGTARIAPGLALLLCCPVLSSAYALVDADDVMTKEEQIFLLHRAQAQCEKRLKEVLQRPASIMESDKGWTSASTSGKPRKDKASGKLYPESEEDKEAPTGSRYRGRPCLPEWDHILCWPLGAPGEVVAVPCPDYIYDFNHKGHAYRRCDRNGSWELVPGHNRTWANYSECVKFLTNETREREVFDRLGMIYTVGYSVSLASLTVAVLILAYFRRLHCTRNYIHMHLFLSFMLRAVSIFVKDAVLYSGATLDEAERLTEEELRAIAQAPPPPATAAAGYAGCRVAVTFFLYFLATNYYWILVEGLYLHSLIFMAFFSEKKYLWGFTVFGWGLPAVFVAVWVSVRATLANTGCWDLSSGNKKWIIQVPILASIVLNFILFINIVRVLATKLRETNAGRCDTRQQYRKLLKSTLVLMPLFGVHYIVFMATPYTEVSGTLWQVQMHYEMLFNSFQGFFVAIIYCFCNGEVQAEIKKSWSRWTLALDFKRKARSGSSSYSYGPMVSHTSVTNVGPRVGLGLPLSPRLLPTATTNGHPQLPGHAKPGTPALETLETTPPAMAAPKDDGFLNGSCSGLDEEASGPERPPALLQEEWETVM

These compounds were tested against Parathyroid hormone/parathyroid hormone-related peptide receptor (Homo sapiens) (UniProt Q03431) (assay: qHTS for PTHR1 Agonists: Primary Screen). Details: HEK293 GP2 PTHR1 cells, GloSensor cAMP luminescence, 1 h; activation: at 115 µM (top of the series) unless noted; series mostly up to 115 µM.
Method in brief: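 HEK-293-derived GP2 cells expressing PTHR1 and a GloSensor cAMP reporter, 3,000/well, plated overnight, given luciferin plus IBMX (each 0.5 mM as added) for 1 h at 37 °C, then compound for 1 h at 37 °C. Luminescence was read after 15 min at room temperature.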
Further: nearly all actives have a fitted effect of over 55% in size.
Potency means the concentration at half of the fitted maximal effect.

Potency, inconclusive:
COC(=O)c1cc(NS(=O)(=O)c2ccc(N3CCCCC3)c([N+](=O)[O-])c2)cc(C(=O)OC)c1 44.7 µM [activator, single point]
NC(c1csc(Nc2cc(NCc3ccco3)ncn2)n1)c1ccccc1Cl (stereo unspecified) 35.5 µM [activator, partial curve, poor fit]
N=c1c(C(=O)NCc2ccc(F)cc2)cc2c(=O)n3ccccc3nc2n1CC1CCCO1 (stereo unspecified) 5.62 µM [activator, partial curve]
CC(C)CN(CCCNC(=O)CC1Oc2ccccc2NC1=O)CC(C)C (stereo unspecified) 3.16 µM [activator, partial curve]
NC(c1csc(Nc2ccc(C(=O)NCCCO)cn2)n1)c1ccccc1Cl (stereo unspecified) 56.2 µM [activator, partial curve, poor fit]
O=C(Cn1c(=O)n(Cc2cccs2)c(=O)c2cccnc21)Nc1ccc(F)cc1 35.5 µM [activator, single point]
C=CCSc1nnc(N2C(=O)C(O)=C(C(=O)c3ccco3)C2c2ccccc2F)s1 (stereo unspecified) 14.1 µM [activator, partial curve, poor fit]
CCc1ccc(C(=O)COC(=O)C(Cc2ccccc2)NC(=O)C2CCC(C)CC2)cc1 (stereo unspecified) 0.891 µM [activator, partial curve, poor fit]
Cc1cc(C(=O)Nc2ccc(S(=O)(=O)Nc3onc(C)c3C)cc2)c(C)o1 15.8 µM [activator, partial curve]
Cc1nn(-c2ccccc2)c(Cl)c1C(=O)Nc1c(C)n(C)n(-c2ccccc2)c1=O 39.8 µM [activator, single point]
Cc1ccc(C)c(N(CC(=O)NC(C)(C)C)C(=O)CCC(=O)Nc2nccs2)c1 126 µM [activator, single point]
CCc1ccc(C2c3[nH]c4ccccc4c3CCN2C(=O)CN2CCN(CC)CC2)cc1 (stereo unspecified) 28.2 µM [activator, single point]
COc1cccc(NC(=O)CCC2CCN(C(=O)c3c(C)noc3C)CC2)c1 22.4 µM [activator, single point]
COc1ccc(CNC(=O)Nc2nnc([C@@H]3C[C@H](O)[C@@H](CO)O3)s2)cc1 22.4 µM [activator, single point]
O=C(CCC(=O)N1CC2CCCN2c2ccccc21)NCc1cccc(Cl)c1 (stereo unspecified) 35.5 µM [activator, partial curve, poor fit]
CC(C)C[C@@H]1NC(=O)[C@H](C(C)C)NC(=O)c2cc([N+](=O)[O-])cc(I)c2OCC[C@@H](C(N)=O)NC1=O 25.1 µM [activator, partial curve, poor fit]
CCCCn1nnnc1-c1nc2ccccc2[nH]c1=O 141 µM [activator, single point]
Cc1ccc(C(=O)Nc2cc(-c3nc4ncccc4o3)ccc2C)c(C)c1 158 µM [activator, single point]
CCC(Cc1ccccc1)NC(=O)CN1C(=O)COc2ccc(S(=O)(=O)N3CCCCCC3)cc21 (stereo unspecified) 112 µM [activator, single point]
CCCn1c(=N)n(CC(=O)c2cccs2)c2ccccc21 39.8 µM [activator, single point]
CCOC(=O)c1ccc(Nc2nc3ccc(C(=O)c4ccccc4)cc3n3c(C)nnc23)cc1 89.1 µM [activator, partial curve, poor fit]
COc1ccc(-c2cc(C(=O)NCCc3ccccc3)c3c(-c4ccccc4)[nH]nc3n2)cc1OC 141 µM [activator, single point]
CC(C)(C)NC(=O)C1c2ccccc2OCC(=O)N1Cc1ccccc1 (stereo unspecified) 3.98 µM [activator, full curve, poor fit]
CCOc1cc2[nH]c(=S)n(CCCN3CCN(C)CC3)c(=O)c2cc1OCC 126 µM [activator, single point]
CCN(CC)CCNC(=O)Cc1c(C(=O)O)n(CC)c2ccccc12 28.2 µM [activator, partial curve]
O=c1c2ccccc2ncn1-c1cccc(Cl)c1 39.8 µM [activator, single point]
O=C(NCCO)c1cc2ccccc2cc1O 6.31 µM [activator, partial curve, poor fit]
CC1CC(C)(C)NC(=S)N1CCCC(=O)Nc1ccc(F)cc1 (stereo unspecified) 141 µM [activator, single point]
COc1cc(OC)c(OC)cc1CN1CCN(Cc2cccc(F)c2)CC1 8.91 µM [activator, partial curve]
CC(C)N(CCCNC(=O)Cn1c(=O)c2cccn2c2ccc(F)cc21)Cc1ccccc1 141 µM [activator, single point]
CCN(CC)CCOC(=O)c1c(C)oc2ccc(OC)cc12 35.5 µM [activator, single point]
CN(C(=O)c1ccc(NC(=O)Cc2ccc(NC(=O)C3CCN(C(=O)c4ccccc4)CC3)cc2)cc1)C1CC1 89.1 µM [activator, single point]
COc1ccc(S(=O)(=O)c2c(O)c3ccc(C(=O)NCc4ccc(F)cc4)cc3[nH]c2=O)cc1 79.4 µM [activator, partial curve, poor fit]
O=C(COc1ccc(S(=O)(=O)NC2CCCCC2)cc1Cl)NCC1CCCO1 (stereo unspecified) 1 µM [activator, full curve, poor fit]
CCC(=O)c1cn(CC(=O)NCc2ccco2)c2ccccc12 44.7 µM [activator, single point]
Cc1ccc(OCCC(=O)OCC(=O)NCc2ccccc2)cc1 141 µM [activator, single point]
COc1cccc(C2C(C(=O)c3ccc(C)o3)=C(O)C(=O)N2CCN2CCOCC2)c1 (stereo unspecified) 0.767 µM [activator, full curve, poor fit]
COc1ccc(CNC(=O)CC2N=C3c4ccccc4N=C(SCC(=O)Nc4ccc(N(C)C)cc4)N3C2=O)cc1 (stereo unspecified) 126 µM [activator, single point]

Reprinted at random: 4 entries already listed.
Potency, inconclusive:
COc1cc(OC)c(OC)cc1CN1CCN(Cc2cccc(F)c2)CC1 8.91 µM [activator, partial curve]
C=CCSc1nnc(N2C(=O)C(O)=C(C(=O)c3ccco3)C2c2ccccc2F)s1 (stereo unspecified) 14.1 µM [activator, partial curve, poor fit]
CCCn1c(=N)n(CC(=O)c2cccs2)c2ccccc21 39.8 µM [activator, single point]
O=C(Cn1c(=O)n(Cc2cccs2)c(=O)c2cccnc21)Nc1ccc(F)cc1 35.5 µM [activator, single point]

Following part.

activation, inconclusive:
Fc1ccccc1N1CCN(Cc2cc(-c3ccccc3)on2)CC1 -38.9% [activator]
CC1CCCN(CCOc2cccc(Oc3ccccc3)c2)C1 (stereo unspecified) 25.7% [activator]
CCOC(=O)Cn1c(=NC(=O)CN2C(=O)CCC2=O)sc2cc(S(N)(=O)=O)ccc21 46.4% [activator]
Cc1ccccc1N(CC(=O)N/N=C/c1ccc(N(C)C)cc1)C(=O)c1ccccc1 -60.2% [activator]
CC(C)(C)OC(=O)NC1CONC1=O (stereo unspecified) 44.4% [activator]
COc1ccc(Nc2nnc(-c3ccc(O)cc3)c3ccccc23)cc1 -18.9% [activator]
CC(N=C(NC#N)Nc1ccncc1)C(C)(C)C (stereo unspecified) 30.5% [activator]
O=C(NCC(c1cccs1)N1CCOCC1)c1cc(S(=O)(=O)N2CCOCC2)ccc1Cl (stereo unspecified) -94.1% [activator]
Cc1ccc(C)c(NC(=O)CCCn2nc(C)c3sc4ccccc4c3c2=O)c1 30.2% [activator]
COc1ccc(NC(=O)CN(Cc2ccccc2)S(=O)(=O)c2ccc3nc(C)sc3c2)cc1 -46.4% [activator]

activation, inactive:
Cc1ccc(-c2ccc(CN3C(CC(C)C)C(=O)N(Cc4cn(CC5CCCCC5)nn4)CCS3(=O)=O)cc2)cc1 (stereo unspecified) -0.953%
O=C(Nc1nc(OCC(F)(F)F)cnc1/C=C\c1ccccc1)c1ccccc1 -7.39%
O=C(Oc1ccc(NC2=C(Cl)C(=O)c3ccccc3C2=O)cc1)c1ccc([N+](=O)[O-])cc1 -38.3%
O=C(Nc1nc(-c2ccccc2)cs1)c1cccc([N+](=O)[O-])c1 13% [at 57.5 µM]
Cc1ccc(N(C(=O)c2csnn2)C(C(=O)NC2CCCCC2)c2ccccn2)c(C)c1 (stereo unspecified) -0.494%
CCOc1ccc(OCC)c(NC(=O)CN2CCN(c3cccc(C)c3)CC2)c1 17.3% [at 57.5 µM]
CN(C)CCNC(=O)C1CCN(Cc2cc3ccccc3n2Cc2ccccc2)CC1 -35.5%
COCCNC(C(=O)Nc1ccc([N+](=O)[O-])cc1Br)c1ccccc1 (stereo unspecified) -25.9%
COc1cc(OC)cc(C(=O)Nc2cc3c(cc2N2CCCC2)n(C)c(=O)c(=O)n3C)c1 -13.6%
CCOc1ccc(Cl)cc1S(=O)(=O)NC1CCCC1 -0.0214%
Cc1cc(/C=N/Nc2ccc([N+](=O)[O-])cn2)c(C)n1-c1ccccc1 -13.9%
Cc1coc2c(C)c3oc(=O)c(CCC(=O)NCCCn4ccnc4)c(C)c3cc12 -9.99%

outcome, inactive:
Cc1ccc(N(CC(=O)N2CCOCC2)S(C)(=O)=O)cc1
CCCNS(=O)(=O)c1ccc2nc(NC(=O)c3ccc(F)cc3)sc2c1
Cc1ccc(C(=O)Nc2cc(C(C)C)c(O)c(C(C)C)c2)cc1
Cc1ccc(-n2nc(C(=O)N3CCN(C)CC3)c3c4ccccc4n(C)c3c2=O)cc1 inactive [at 57.5 µM]
CNc1cncc(-c2cccc(OC)c2F)n1
Nc1nc(SCc2ccc(Cl)cc2Cl)nc2nc3c(cc12)CCCC3
